Experimental data as given in the supplement of paper PMC10849652.
The list shows a part of the results.

Amino acid sequences for entries named in this document (tags omitted). A change or cut given only in a name is not applied to a line headed by its entry.
UniProt Q9UMF0: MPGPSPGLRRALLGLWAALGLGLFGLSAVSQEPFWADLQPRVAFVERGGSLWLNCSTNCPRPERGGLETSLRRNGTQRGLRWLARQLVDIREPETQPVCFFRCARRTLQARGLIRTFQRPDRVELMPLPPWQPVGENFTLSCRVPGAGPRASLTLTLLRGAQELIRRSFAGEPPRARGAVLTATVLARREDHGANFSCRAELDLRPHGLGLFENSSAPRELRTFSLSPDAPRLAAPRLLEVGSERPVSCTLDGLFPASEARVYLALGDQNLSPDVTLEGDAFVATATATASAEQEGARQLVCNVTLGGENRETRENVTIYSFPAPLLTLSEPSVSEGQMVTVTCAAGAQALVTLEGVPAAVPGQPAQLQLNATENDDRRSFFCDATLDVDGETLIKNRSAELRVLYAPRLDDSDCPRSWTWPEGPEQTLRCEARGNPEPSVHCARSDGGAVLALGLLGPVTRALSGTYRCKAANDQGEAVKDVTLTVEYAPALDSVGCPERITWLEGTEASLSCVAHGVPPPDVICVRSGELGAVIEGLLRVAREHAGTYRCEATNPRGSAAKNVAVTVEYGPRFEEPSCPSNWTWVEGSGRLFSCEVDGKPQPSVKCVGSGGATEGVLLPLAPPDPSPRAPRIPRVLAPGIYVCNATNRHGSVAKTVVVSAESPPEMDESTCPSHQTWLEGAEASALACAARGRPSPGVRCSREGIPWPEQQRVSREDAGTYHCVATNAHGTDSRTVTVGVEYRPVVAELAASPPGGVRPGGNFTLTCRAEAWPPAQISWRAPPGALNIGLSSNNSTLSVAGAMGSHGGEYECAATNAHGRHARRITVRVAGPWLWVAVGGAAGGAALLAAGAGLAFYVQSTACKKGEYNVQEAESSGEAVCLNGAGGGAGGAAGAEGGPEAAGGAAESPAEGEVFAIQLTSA
UniProt O00425, whole entry, looked up: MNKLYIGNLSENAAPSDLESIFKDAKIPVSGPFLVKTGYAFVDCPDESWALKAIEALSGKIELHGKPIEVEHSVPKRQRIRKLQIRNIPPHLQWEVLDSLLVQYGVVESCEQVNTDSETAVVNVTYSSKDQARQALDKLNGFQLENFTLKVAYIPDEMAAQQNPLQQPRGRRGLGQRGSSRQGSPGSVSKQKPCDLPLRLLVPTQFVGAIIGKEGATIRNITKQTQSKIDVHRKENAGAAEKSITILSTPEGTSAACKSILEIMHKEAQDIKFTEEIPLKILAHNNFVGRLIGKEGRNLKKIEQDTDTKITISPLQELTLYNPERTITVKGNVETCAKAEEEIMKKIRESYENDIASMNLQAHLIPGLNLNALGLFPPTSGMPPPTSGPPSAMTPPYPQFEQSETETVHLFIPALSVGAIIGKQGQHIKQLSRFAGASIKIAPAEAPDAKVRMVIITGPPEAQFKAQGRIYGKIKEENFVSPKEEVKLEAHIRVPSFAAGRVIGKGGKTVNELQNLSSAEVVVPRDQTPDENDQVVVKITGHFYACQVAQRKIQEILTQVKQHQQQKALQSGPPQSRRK
UniProt P10809, whole entry, looked up: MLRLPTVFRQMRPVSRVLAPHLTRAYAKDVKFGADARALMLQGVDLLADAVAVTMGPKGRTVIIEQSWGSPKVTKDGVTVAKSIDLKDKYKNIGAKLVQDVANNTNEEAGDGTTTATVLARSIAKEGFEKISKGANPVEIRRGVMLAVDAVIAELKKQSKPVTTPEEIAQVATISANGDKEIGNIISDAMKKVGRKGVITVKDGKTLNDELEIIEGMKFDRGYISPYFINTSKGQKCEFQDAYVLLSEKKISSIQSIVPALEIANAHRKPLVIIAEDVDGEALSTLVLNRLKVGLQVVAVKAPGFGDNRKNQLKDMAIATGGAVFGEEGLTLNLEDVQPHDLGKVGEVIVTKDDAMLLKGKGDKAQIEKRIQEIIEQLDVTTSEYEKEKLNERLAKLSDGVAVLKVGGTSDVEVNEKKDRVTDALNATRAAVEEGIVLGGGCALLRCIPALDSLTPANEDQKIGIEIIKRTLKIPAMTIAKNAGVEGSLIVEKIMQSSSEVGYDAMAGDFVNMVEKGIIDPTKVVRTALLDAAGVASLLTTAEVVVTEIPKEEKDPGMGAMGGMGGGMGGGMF
UniProt Q96T52: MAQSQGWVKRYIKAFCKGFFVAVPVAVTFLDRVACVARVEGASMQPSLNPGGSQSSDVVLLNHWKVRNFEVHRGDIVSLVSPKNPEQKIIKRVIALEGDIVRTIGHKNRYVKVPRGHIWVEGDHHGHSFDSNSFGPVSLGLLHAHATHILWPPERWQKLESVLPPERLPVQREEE
UniProt Q05084: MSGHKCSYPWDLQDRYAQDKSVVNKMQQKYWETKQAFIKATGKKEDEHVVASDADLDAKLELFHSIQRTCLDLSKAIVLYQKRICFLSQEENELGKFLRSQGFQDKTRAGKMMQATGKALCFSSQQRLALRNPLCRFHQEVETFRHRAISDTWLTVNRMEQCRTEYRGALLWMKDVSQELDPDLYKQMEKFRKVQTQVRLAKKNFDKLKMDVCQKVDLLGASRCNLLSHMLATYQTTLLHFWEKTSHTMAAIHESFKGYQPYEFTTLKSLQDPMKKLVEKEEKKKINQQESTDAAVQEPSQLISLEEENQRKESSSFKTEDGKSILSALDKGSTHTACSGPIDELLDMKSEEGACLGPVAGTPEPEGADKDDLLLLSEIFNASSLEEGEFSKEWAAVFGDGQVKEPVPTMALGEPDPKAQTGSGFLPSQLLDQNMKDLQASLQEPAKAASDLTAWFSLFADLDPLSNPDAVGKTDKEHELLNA
UniProt Q13478: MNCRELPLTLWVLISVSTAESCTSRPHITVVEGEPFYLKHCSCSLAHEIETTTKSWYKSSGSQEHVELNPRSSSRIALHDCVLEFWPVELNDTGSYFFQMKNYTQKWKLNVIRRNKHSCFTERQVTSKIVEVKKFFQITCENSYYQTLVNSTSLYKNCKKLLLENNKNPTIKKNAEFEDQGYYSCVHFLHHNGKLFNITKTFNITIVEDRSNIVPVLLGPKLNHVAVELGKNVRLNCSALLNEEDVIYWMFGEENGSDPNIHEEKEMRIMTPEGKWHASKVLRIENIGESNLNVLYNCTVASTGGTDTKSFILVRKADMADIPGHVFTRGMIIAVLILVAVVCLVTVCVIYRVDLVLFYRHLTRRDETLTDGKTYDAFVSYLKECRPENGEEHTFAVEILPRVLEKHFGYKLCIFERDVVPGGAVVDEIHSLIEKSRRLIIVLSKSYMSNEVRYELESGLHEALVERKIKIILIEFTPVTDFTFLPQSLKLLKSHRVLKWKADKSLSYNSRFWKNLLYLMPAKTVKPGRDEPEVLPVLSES
UniProt O43464: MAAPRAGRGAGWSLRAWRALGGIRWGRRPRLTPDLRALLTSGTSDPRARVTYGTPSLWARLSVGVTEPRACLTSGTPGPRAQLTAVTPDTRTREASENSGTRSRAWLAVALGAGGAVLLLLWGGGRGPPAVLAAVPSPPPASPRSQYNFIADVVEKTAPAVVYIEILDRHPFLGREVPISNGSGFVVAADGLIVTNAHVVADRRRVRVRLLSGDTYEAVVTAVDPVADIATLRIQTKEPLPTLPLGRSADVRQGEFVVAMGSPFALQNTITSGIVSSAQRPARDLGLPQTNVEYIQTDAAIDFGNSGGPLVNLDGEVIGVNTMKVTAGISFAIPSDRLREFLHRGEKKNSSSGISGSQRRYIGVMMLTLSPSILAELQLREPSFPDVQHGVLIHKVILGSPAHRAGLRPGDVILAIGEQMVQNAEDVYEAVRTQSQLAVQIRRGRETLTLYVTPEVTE
UniProt Q13418: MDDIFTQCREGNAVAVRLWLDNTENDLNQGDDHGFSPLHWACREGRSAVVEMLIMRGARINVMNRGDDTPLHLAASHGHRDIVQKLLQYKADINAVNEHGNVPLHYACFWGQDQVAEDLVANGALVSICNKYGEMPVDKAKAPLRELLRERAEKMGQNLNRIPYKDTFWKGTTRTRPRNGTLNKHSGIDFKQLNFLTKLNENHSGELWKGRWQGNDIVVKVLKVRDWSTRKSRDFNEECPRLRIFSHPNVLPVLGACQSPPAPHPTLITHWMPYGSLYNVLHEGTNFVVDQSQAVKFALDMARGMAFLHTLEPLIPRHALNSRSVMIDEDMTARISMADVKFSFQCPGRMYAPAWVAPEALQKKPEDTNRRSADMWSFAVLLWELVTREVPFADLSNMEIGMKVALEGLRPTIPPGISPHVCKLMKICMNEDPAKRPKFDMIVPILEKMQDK
UniProt P05362: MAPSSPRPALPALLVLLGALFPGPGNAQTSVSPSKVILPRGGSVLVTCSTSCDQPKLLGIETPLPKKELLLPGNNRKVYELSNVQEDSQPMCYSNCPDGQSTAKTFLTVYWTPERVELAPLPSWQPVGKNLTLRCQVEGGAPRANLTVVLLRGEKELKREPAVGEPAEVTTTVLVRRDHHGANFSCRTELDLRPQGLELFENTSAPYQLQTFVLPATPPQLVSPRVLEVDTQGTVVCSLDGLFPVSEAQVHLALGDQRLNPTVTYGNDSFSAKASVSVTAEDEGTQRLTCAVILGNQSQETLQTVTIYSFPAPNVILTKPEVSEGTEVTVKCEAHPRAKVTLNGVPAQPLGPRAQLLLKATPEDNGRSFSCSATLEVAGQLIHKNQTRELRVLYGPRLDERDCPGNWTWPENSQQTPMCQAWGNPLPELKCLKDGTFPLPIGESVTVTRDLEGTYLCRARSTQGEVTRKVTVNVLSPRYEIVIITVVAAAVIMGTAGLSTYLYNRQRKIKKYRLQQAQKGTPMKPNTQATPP
UniProt Q9Y547: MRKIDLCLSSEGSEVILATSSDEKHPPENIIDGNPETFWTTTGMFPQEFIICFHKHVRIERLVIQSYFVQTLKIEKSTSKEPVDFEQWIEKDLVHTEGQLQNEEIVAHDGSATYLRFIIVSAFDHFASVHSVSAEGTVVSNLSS
UniProt Q9NX55: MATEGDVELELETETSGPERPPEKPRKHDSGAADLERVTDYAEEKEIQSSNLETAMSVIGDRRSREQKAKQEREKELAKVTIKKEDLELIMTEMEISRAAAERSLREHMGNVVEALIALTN
UniProt Q14116, whole entry, looked up: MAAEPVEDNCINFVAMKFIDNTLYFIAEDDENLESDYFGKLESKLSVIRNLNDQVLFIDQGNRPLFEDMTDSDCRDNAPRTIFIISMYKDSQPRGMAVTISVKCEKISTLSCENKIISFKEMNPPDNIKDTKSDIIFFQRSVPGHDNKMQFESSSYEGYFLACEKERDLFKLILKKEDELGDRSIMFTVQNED
UniProt Q9Y4L1: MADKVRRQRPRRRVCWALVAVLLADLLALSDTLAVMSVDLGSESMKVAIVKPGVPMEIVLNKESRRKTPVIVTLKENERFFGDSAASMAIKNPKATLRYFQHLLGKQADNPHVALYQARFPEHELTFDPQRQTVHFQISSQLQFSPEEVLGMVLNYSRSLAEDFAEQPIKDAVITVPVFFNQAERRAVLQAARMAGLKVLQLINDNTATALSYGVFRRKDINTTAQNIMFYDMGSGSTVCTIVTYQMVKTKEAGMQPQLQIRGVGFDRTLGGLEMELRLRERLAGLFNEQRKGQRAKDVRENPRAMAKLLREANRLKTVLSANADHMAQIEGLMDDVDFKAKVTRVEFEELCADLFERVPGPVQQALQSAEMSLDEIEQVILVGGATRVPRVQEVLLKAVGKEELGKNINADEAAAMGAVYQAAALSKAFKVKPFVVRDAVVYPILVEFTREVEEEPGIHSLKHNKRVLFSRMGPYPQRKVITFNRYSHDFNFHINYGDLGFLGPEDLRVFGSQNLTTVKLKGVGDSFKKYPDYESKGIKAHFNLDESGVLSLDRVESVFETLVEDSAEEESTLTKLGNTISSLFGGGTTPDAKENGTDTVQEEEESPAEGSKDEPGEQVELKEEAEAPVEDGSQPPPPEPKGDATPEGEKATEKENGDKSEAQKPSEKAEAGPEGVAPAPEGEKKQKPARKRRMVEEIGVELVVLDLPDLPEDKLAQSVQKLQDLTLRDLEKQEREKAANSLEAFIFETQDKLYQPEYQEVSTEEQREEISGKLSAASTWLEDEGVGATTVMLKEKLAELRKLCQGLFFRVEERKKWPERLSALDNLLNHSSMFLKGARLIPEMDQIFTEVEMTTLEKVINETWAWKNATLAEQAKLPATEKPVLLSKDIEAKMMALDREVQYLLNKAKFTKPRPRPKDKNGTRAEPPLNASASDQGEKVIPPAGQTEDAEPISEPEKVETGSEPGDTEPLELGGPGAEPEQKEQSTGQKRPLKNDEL
UniProt P61604, whole entry, looked up: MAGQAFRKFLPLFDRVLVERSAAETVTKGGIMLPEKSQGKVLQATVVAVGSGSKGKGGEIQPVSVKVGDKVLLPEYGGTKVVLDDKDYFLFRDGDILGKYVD
UniProt P29218: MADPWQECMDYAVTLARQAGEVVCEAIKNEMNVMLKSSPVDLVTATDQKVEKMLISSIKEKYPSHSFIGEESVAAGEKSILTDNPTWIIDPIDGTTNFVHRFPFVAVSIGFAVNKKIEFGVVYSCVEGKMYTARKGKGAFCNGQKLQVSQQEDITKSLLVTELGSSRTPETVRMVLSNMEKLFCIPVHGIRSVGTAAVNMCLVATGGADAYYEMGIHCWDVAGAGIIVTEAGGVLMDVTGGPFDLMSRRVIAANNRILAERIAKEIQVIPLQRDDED

Assays:
Assay in all cases: log2 fold change, soluble protein after heating vs DMSO (PISA); higher = thermal stabilisation; K562 lysate, 10 uM; active = over 0.2 and 3.5 SD of the protein, either way, in both replicates (recomputed)
erlotinib = compound: C#Cc1cccc(Nc2ncnc3cc(OCCOC)c(OCCOC)cc23)c1 [erlotinib]
How it was run: (§1)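 Quantification was by TMTpro 16plex LC-MS/MS with equalised channel sums, applied to the supernatant after 21,000xg for 90 min. Samples were crude K562 extract at 1 mg/mL protein in PBS pH 7.4 with 1 mM MgCl2, treated with 10 μM compound for 30 min, heated for 3 min across 48°C-58°C, pooled and brought to 0.5% NP-40 at 4°C. Values are log-two fold changes in thermal stability relative to solvent controls, from duplicates.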

[1] = compound: C/C(=N\NC(=O)C1=CC(=CC=C1)S(=O)(=O)N2CCOCC2)/C3=C(C=CC(=C3)Cl)O
How it was run: as §1

[2] = compound: C1=CC(=CC=C1C2=NC3=C(N2)C=C(C=C3)C(=O)N)OC4=CC=C(C=C4)Cl
How it was run: as §1

[3] = compound: C1=CC2=C(C=CC(=C2)/C=C\3/C(=O)NC(=NCC4=CC=CS4)S3)N=C1
How it was run: as §1

[4] = compound: C1=CC2=NC=CN=C2C=C1/C=C/3\C(=O)NC(=O)S3
How it was run: as §1

[5] = compound: C1=CC=C(C=C1)C2=NC(=C(N2)C3=CC=NC=C3)C4=CC(=C(C=C4)Cl)O
How it was run: as §1

[6] = compound: C1=CC=C2C(=C1)C3=NNC4=CC=CC(=C43)C2=O
How it was run: as §1

[7] = compound: C1CCN(C1)C(=O)NC2=CC=CC(=C2)NC3=NC=C(C(=N3)NCCC4=CN=CN4)Br
How it was run: as §1

[8] = compound: C1CN(CCC1(CC2=CC=C(C=C2)Cl)N)C3=NC=NC4=C3C=CN4
How it was run: as §1

IRAK-1-4 Inhibitor I = compound: C1COCCN1CCN2C3=CC=CC=C3N=C2NC(=O)C4=CC(=CC=C4)[N+](=O)[O-] [IRAK-1-4 Inhibitor I]
How it was run: as §1

Measured: log2 fold change

IFI30 (UniProt P13284)
inactive: erlotinib 0.039 | [1] -0.022 | [2] -0.039 | [3] -0.012 | [4] 0.046 | [5] 0.091 | [6] -0.113 | [7] 0.005 | [8] 0.018 | IRAK-1-4 Inhibitor I -0.005

ICAM5 (UniProt Q9UMF0)
inactive: erlotinib 0.043 | [1] -0.008 | [2] 0.071 | [3] -0.088 | [4] 0.022 | [5] 0.06 | [6] 0.062 | [7] -0.032 | [8] 0.049 | IRAK-1-4 Inhibitor I 0.067

IGF2BP3 (UniProt O00425)
inactive: erlotinib 0.04 | [1] 0.023 | [2] -0.007 | [3] 0.003 | [4] 0.005 | [5] 0.024 | [6] -0.067 | [7] 0.026 | [8] 0 | IRAK-1-4 Inhibitor I -0.018

HSPD1 (UniProt P10809)
inactive: erlotinib 0 | [1] 0.047 | [2] 0.009 | [3] -0.022 | [4] 0.003 | [5] 0.007 | [6] 0.01 | [7] -0.006 | [8] 0 | IRAK-1-4 Inhibitor I 0.006

INTS11 (UniProt Q5TA45)
inactive: erlotinib -0.01 | [1] 0.013 | [2] 0.002 | [3] 0.026 | [4] 0.021 | [5] -0.016 | [6] -0.028 | [7] 0.01 | [8] 0.051 | IRAK-1-4 Inhibitor I 0.03

IMMP2L (UniProt Q96T52)
inactive: erlotinib 0.003 | [1] -0.138 | [2] -0.005 | [3] -0.049 | [4] 0.077 | [5] 0.092 | [6] 0.013 | [7] -0.03 | [8] -0.06 | IRAK-1-4 Inhibitor I 0.084

ICA1 (UniProt Q05084)
inactive: erlotinib -0.012 | [1] -0.012 | [2] -0.014 | [3] -0.035 | [4] -0.043 | [5] 0.003 | [6] -0.013 | [7] -0.014 | [8] 0.033 | IRAK-1-4 Inhibitor I 0.003

IKBKG isoform 2 (UniProt Q9Y6K9)
inactive: erlotinib -0.035 | [1] -0.007 | [2] 0.019 | [3] -0.059 | [4] -0.006 | [5] -0.047 | [6] -0.011 | [7] -0.007 | [8] 0.036 | IRAK-1-4 Inhibitor I -0.02

ILF3 isoform 7 (UniProt Q12906)
inactive: erlotinib -0.011 | [1] 0.031 | [2] 0.02 | [3] -0.013 | [4] -0.013 | [5] 0.027 | [6] 0.008 | [7] 0.001 | [8] -0.017 | IRAK-1-4 Inhibitor I 0.019

HTT (UniProt P42858)
inactive: erlotinib 0.018 | [1] -0.051 | [2] -0.067 | [3] 0.037 | [4] 0.032 | [5] -0.041 | [6] -0.138 | [7] -0.04 | [8] -0.05 | IRAK-1-4 Inhibitor I -0.027

IL18R1 (UniProt Q13478)
inactive: erlotinib -0.029 | [1] -0.493 | [2] -0.136 | [3] 0.147 | [4] 0.041 | [5] 0.152 | [6] 0.079 | [7] -0.155 | [8] 0.058 | IRAK-1-4 Inhibitor I -0.043

IBTK (UniProt Q9P2D0)
inactive: erlotinib -0.042 | [1] 0.055 | [2] 0.013 | [3] 0.042 | [4] -0.043 | [5] -0.038 | [6] -0.072 | [7] 0.012 | [8] 0.004 | IRAK-1-4 Inhibitor I -0.024

HTRA2 (UniProt O43464)
inactive: erlotinib -0.006 | [1] 0.111 | [2] 0.028 | [3] -0.02 | [4] 0.011 | [5] -0.017 | [6] -0.037 | [7] -0.004 | [8] 0.012 | IRAK-1-4 Inhibitor I 0.016

ILK (UniProt Q13418)
inactive: erlotinib 0.112 | [1] 0.025 | [2] 0.019 | [3] 0.012 | [4] 0.002 | [5] -0.018 | [6] -0.04 | [7] 0.029 | [8] -0.035 | IRAK-1-4 Inhibitor I 0.045

HSPBP1 (UniProt Q9NZL4)
inactive: erlotinib 0.022 | [1] 0.052 | [2] -0.003 | [3] -0.025 | [4] -0.017 | [5] 0.003 | [6] -0.018 | [7] -0.036 | [8] 0.05 | IRAK-1-4 Inhibitor I -0.004

IGF2BP2 (UniProt Q9Y6M1)
inactive: erlotinib 0.022 | [1] 0.049 | [2] -0.041 | [3] -0.032 | [4] 0.031 | [5] 0 | [6] -0.08 | [7] -0.023 | [8] 0.051 | IRAK-1-4 Inhibitor I -0.022

IGBP1 (UniProt P78318)
inactive: erlotinib -0.021 | [1] 0.05 | [2] 0.03 | [3] 0.016 | [4] -0.037 | [5] 0.016 | [6] -0.011 | [7] 0.007 | [8] 0.004 | IRAK-1-4 Inhibitor I 0.006

ICAM1 (UniProt P05362)
inactive: erlotinib -0.025 | [1] -0.016 | [2] 0.036 | [3] 0.002 | [4] -0.016 | [5] 0.018 | [6] -0.017 | [7] 0.03 | [8] 0.024 | IRAK-1-4 Inhibitor I 0.026

HUWE1 (UniProt Q7Z6Z7)
inactive: erlotinib -0.005 | [1] -0.012 | [2] 0.007 | [3] -0.007 | [4] 0.002 | [5] -0.009 | [6] -0.003 | [7] 0.001 | [8] 0.008 | IRAK-1-4 Inhibitor I 0.005

IDH3B (UniProt O43837)
inactive: erlotinib -0.031 | [1] -0.024 | [2] -0.026 | [3] -0.005 | [4] 0.007 | [5] -0.04 | [6] 0.18 | [7] -0.026 | [8] 0.019 | IRAK-1-4 Inhibitor I 0.027

8 consecutive records out of the list so far, for reference:
IL18R1 (UniProt Q13478)
inactive: erlotinib -0.029 | [1] -0.493 | [2] -0.136 | [3] 0.147 | [4] 0.041 | [5] 0.152 | [6] 0.079 | [7] -0.155 | [8] 0.058 | IRAK-1-4 Inhibitor I -0.043

IBTK (UniProt Q9P2D0)
inactive: erlotinib -0.042 | [1] 0.055 | [2] 0.013 | [3] 0.042 | [4] -0.043 | [5] -0.038 | [6] -0.072 | [7] 0.012 | [8] 0.004 | IRAK-1-4 Inhibitor I -0.024

HTRA2 (UniProt O43464)
inactive: erlotinib -0.006 | [1] 0.111 | [2] 0.028 | [3] -0.02 | [4] 0.011 | [5] -0.017 | [6] -0.037 | [7] -0.004 | [8] 0.012 | IRAK-1-4 Inhibitor I 0.016

ILK (UniProt Q13418)
inactive: erlotinib 0.112 | [1] 0.025 | [2] 0.019 | [3] 0.012 | [4] 0.002 | [5] -0.018 | [6] -0.04 | [7] 0.029 | [8] -0.035 | IRAK-1-4 Inhibitor I 0.045

HSPBP1 (UniProt Q9NZL4)
inactive: erlotinib 0.022 | [1] 0.052 | [2] -0.003 | [3] -0.025 | [4] -0.017 | [5] 0.003 | [6] -0.018 | [7] -0.036 | [8] 0.05 | IRAK-1-4 Inhibitor I -0.004

IGF2BP2 (UniProt Q9Y6M1)
inactive: erlotinib 0.022 | [1] 0.049 | [2] -0.041 | [3] -0.032 | [4] 0.031 | [5] 0 | [6] -0.08 | [7] -0.023 | [8] 0.051 | IRAK-1-4 Inhibitor I -0.022

IGBP1 (UniProt P78318)
inactive: erlotinib -0.021 | [1] 0.05 | [2] 0.03 | [3] 0.016 | [4] -0.037 | [5] 0.016 | [6] -0.011 | [7] 0.007 | [8] 0.004 | IRAK-1-4 Inhibitor I 0.006

ICAM1 (UniProt P05362)
inactive: erlotinib -0.025 | [1] -0.016 | [2] 0.036 | [3] 0.002 | [4] -0.016 | [5] 0.018 | [6] -0.017 | [7] 0.03 | [8] 0.024 | IRAK-1-4 Inhibitor I 0.026

Following part.

ICAM4 isoform 3 (UniProt Q14773)
inactive: erlotinib -0.03 | [1] -0.158 | [2] 0.162 | [3] -0.027 | [4] -0.001 | [5] 0.088 | [6] 0.055 | [7] -0.063 | [8] 0.257 | IRAK-1-4 Inhibitor I 0.195

HSPB11 (UniProt Q9Y547)
inactive: erlotinib -0.028 | [1] 0.032 | [2] 0.007 | [3] -0.033 | [4] -0.022 | [5] -0.002 | [6] -0.055 | [7] 0.008 | [8] 0.086 | IRAK-1-4 Inhibitor I 0.027

HYPK (UniProt Q9NX55)
inactive: erlotinib 0.004 | [1] 0.035 | [2] 0.016 | [3] 0 | [4] -0.01 | [5] 0.029 | [6] -0.004 | [7] 0.028 | [8] 0.072 | IRAK-1-4 Inhibitor I 0.032

IL18 (UniProt Q14116)
inactive: erlotinib -0.019 | [1] -0.069 | [2] 0.01 | [3] -0.065 | [4] -0.062 | [5] -0.028 | [6] -0.02 | [7] 0.051 | [8] 0.007 | IRAK-1-4 Inhibitor I -0.012

INTS12 (UniProt Q96CB8)
inactive: erlotinib 0.059 | [1] 0 | [2] 0.065 | [3] -0.078 | [4] -0.03 | [5] -0.042 | [6] -0.051 | [7] -0.023 | [8] 0.012 | IRAK-1-4 Inhibitor I -0.024

HYOU1 (UniProt Q9Y4L1)
inactive: erlotinib -0.002 | [1] -0.006 | [2] 0.007 | [3] -0.011 | [4] -0.018 | [5] -0.002 | [6] -0.015 | [7] 0.01 | [8] 0.009 | IRAK-1-4 Inhibitor I 0.002

INPP5K (UniProt Q9BT40)
inactive: erlotinib -0.065 | [1] 0.051 | [2] 0.054 | [3] 0.15 | [4] -0.064 | [5] -0.175 | [6] -0.221 | [7] -0.01 | [8] 0.104 | IRAK-1-4 Inhibitor I -0.037

HSPE1 (UniProt P61604)
inactive: erlotinib -0.046 | [1] -0.02 | [2] -0.028 | [3] -0.024 | [4] -0.031 | [5] -0.022 | [6] 0.042 | [7] 0.026 | [8] 0.015 | IRAK-1-4 Inhibitor I -0.009

IMPA1 isoform 3 (UniProt P29218)
inactive: erlotinib -0.025 | [1] 0.017 | [2] 0.01 | [3] -0.01 | [4] 0.012 | [5] 0.019 | [6] 0.012 | [7] 0.006 | [8] 0.011 | IRAK-1-4 Inhibitor I 0.017

IFNGR1 (UniProt P15260)
inactive: erlotinib 0.06 | [1] -0.064 | [2] 0.07 | [3] -0.134 | [4] -0.127 | [5] -0.021 | [6] -0.264 | [7] -0.075 | [8] 0.073 | IRAK-1-4 Inhibitor I 0.107
